This is one part of the list. The data scatter; read single values as rough.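 Tm was set to 64 °C where no melting was found, and many curves are irregular.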
Compound: CCc1cnccc1C(=O)Nc1cc2c(cc1F)NC(=O)CC2
Experiment: melting temperature shift (DMSO Tm minus MBE1-treated Tm) in cellular thermal proteome profiling; higher = less thermal stabilization by MBE1 (negative = stabilized by MBE1)
Details: A375

By UniProt entry, the sequences of proteins in these tests, tags left out. Where a name states a change or a piece, a line headed by the entry shows the natural chain unless it says otherwise.
UniProt Q8NBQ5: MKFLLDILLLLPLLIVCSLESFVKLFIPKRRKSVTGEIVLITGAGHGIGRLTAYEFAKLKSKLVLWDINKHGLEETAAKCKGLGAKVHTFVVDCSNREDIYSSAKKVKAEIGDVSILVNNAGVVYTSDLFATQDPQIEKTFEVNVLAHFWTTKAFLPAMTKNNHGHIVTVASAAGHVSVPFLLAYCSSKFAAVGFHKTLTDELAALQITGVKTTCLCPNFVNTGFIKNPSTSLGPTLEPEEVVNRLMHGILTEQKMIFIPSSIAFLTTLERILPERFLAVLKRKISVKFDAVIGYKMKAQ
UniProt Q8TDH9: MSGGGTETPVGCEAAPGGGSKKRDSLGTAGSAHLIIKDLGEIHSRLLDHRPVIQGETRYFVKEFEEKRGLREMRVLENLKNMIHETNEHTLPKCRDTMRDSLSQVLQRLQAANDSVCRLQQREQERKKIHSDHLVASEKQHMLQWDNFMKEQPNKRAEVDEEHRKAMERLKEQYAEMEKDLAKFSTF
UniProt Q8NC69: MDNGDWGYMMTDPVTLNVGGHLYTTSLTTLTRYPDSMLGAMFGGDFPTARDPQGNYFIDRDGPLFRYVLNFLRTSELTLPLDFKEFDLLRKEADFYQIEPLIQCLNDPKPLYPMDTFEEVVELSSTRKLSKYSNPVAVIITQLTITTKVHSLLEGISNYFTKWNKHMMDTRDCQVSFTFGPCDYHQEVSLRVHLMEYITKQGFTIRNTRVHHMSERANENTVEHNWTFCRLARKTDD
UniProt Q8NCW5: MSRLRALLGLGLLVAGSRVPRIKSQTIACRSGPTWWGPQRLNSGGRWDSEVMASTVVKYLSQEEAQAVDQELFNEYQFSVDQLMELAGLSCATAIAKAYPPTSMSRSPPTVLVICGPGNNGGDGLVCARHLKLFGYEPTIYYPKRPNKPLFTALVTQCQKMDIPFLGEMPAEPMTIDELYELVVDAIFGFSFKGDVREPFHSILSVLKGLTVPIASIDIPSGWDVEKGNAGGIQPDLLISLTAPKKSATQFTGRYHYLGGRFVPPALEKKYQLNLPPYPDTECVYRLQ
UniProt Q8NBS9: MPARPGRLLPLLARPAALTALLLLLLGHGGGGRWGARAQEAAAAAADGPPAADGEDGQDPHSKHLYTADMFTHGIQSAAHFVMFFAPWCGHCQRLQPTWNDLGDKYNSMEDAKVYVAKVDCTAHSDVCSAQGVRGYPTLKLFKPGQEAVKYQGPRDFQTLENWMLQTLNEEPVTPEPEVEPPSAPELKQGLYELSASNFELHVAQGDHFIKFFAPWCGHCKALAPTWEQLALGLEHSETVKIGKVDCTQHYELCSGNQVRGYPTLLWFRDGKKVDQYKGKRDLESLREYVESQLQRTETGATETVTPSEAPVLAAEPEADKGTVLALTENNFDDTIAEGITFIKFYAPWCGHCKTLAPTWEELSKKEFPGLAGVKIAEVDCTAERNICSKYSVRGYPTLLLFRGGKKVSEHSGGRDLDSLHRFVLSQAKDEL
UniProt Q8WV24: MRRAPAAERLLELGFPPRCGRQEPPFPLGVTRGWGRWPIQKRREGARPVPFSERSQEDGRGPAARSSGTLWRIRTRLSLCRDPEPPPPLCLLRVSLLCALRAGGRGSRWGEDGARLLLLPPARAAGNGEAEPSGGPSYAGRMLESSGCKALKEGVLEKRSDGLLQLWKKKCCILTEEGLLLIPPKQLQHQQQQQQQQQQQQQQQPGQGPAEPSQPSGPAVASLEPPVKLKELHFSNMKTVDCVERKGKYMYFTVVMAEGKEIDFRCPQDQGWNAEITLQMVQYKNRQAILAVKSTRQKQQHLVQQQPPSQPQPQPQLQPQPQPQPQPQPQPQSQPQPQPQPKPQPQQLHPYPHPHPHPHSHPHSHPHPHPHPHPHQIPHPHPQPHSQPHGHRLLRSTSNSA
UniProt Q8NFI3: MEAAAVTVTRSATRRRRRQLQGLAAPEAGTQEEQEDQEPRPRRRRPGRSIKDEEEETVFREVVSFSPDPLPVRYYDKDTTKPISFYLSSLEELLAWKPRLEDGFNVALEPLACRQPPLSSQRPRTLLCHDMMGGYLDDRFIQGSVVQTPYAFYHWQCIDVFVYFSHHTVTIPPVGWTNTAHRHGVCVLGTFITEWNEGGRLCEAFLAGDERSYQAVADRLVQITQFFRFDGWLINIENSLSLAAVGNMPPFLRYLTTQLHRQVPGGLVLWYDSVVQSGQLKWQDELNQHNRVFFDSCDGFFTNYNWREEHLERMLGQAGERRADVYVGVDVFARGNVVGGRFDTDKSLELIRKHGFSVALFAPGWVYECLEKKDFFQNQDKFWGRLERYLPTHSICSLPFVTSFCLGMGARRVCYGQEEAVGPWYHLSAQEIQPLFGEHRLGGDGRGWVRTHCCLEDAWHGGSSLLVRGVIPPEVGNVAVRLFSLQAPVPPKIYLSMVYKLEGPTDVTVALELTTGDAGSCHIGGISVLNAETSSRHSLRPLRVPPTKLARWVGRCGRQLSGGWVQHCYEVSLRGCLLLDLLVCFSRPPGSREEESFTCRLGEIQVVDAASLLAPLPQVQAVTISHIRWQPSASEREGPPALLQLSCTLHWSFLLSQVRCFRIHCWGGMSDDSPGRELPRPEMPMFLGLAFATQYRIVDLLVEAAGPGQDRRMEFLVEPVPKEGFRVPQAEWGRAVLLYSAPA
UniProt Q8N9N2: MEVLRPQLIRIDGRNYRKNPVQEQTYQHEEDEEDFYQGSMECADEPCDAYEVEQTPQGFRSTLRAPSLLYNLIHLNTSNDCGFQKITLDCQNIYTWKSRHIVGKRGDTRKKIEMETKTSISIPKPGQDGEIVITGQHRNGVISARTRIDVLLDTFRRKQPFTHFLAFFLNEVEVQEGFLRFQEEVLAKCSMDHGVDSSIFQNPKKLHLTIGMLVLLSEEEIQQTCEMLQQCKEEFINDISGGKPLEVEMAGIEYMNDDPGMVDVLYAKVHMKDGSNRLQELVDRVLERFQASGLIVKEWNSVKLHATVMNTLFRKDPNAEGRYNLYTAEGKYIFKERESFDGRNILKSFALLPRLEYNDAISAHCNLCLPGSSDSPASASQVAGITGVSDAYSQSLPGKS
UniProt Q8NHU6: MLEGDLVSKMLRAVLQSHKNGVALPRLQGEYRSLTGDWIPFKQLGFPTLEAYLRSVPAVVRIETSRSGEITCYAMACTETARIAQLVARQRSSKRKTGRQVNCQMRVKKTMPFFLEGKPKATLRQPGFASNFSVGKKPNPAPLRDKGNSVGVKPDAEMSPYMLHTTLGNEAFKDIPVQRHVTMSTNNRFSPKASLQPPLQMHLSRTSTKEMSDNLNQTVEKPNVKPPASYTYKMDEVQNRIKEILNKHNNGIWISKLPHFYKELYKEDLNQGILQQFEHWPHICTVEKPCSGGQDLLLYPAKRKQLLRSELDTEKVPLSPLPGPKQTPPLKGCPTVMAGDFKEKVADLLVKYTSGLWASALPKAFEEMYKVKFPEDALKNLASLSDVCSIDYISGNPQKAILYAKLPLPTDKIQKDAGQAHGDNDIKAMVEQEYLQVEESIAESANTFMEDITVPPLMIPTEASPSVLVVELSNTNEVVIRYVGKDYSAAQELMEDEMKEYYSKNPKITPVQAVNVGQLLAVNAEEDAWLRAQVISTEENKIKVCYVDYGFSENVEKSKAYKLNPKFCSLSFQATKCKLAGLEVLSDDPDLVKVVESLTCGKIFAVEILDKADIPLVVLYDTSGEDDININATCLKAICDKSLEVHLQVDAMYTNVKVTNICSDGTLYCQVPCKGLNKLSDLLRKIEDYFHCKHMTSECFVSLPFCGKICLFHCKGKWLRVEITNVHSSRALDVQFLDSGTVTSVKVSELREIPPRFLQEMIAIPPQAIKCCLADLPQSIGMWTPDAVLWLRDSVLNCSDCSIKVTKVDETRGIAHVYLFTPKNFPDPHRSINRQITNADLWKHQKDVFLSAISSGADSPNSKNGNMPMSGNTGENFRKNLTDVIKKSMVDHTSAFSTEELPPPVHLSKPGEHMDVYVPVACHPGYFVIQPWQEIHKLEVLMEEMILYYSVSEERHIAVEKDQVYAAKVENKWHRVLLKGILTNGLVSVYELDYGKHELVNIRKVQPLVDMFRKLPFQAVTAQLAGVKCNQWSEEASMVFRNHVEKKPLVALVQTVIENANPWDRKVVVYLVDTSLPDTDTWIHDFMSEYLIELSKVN
UniProt Q8WUW1: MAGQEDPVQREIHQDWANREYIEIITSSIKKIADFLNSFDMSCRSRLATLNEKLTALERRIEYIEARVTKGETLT
UniProt Q8N954: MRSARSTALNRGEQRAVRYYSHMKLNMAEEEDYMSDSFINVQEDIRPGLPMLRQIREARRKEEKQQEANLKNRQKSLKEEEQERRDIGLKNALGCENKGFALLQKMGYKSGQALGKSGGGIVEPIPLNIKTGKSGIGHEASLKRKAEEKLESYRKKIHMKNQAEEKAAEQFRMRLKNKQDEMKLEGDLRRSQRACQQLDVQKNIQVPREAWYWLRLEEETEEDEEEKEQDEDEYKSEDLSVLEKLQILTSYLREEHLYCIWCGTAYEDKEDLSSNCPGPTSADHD
UniProt Q8TB52: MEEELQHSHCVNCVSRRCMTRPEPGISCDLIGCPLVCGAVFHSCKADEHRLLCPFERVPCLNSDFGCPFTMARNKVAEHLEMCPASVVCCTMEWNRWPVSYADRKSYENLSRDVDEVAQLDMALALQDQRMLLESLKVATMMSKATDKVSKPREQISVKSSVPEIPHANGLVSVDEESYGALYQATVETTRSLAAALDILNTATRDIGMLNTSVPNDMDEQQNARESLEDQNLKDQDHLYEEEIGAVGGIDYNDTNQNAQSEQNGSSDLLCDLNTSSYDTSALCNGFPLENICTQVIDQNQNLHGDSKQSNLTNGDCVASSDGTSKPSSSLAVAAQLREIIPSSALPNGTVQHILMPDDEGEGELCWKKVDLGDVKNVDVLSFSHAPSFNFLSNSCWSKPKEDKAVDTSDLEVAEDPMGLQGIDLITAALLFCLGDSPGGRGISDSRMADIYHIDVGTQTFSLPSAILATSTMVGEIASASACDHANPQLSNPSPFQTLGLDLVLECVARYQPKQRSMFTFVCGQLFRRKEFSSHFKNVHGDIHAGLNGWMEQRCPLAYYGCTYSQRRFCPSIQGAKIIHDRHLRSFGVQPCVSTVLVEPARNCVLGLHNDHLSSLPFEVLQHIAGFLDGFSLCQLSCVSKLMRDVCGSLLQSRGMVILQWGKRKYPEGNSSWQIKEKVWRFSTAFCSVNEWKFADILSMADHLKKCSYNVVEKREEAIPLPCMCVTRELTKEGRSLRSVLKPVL
UniProt Q8TCY9: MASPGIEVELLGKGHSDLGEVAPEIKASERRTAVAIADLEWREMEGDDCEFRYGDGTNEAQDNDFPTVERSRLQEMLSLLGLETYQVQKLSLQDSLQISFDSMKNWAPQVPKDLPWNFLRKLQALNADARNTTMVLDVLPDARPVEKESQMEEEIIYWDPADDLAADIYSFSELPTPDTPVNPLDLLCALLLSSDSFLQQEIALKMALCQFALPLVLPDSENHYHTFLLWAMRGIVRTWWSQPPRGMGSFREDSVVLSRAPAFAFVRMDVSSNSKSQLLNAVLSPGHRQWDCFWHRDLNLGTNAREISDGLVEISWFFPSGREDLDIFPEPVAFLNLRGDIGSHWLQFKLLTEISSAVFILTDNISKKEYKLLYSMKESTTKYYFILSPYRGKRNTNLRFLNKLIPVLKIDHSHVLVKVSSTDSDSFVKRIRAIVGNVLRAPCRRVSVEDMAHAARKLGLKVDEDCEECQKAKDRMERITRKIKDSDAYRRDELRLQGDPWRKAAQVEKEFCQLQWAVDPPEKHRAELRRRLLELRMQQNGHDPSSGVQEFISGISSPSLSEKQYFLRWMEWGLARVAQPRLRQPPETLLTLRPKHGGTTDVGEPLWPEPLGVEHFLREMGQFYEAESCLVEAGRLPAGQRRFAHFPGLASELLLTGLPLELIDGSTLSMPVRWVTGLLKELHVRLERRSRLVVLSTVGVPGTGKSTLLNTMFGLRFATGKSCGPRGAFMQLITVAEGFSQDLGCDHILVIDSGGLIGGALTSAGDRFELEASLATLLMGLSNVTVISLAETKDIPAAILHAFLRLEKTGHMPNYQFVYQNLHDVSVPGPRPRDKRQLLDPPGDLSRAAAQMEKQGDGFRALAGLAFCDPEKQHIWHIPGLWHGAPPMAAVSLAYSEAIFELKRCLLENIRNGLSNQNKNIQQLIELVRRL
UniProt Q8NB16: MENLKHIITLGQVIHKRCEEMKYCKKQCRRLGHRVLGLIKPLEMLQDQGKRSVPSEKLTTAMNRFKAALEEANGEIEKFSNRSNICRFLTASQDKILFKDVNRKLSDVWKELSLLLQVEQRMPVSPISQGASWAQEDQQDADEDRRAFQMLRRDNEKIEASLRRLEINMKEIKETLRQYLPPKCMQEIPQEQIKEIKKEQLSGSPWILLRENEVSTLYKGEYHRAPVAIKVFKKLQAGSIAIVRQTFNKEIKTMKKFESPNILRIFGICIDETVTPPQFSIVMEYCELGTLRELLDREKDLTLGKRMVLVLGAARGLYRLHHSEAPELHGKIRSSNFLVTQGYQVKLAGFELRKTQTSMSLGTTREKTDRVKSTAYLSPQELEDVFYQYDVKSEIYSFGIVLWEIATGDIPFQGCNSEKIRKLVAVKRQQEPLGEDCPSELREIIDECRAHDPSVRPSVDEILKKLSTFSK

Target	melting temperature shift (MBE1 concentration: 100 nM) [°C]	melting temperature shift (MBE1 concentration: 1 uM) [°C]
UniProt Q8NF91	1.43	2.63
HSD17B11 (UniProt Q8NBQ5)	-0.812	0.751
CHTF18 (UniProt Q8WVB6)	-0.762	-0.301
BLOC1S5 (UniProt Q8TDH9)	0.0427	0.302
GTF3C2 (UniProt Q8WUA4)	-0.109	-0.179
UniProt Q8NC69	-0.847	5.61
FAM134A (UniProt Q8NC44)	-0.885	1.13
UniProt Q8NFQ8	-0.939	0.738
NAXE (UniProt Q8NCW5)	-2.84	1.4
PARD3 (UniProt Q8TEW0)	-0.592	-0.629
TRAF3IP1 (UniProt Q8TDR0)	-1.81	-1.12
TXNDC5 (UniProt Q8NBS9)	-1.17	-0.293
UniProt Q8WV24	-0.288	-0.237
MOSPD2 (UniProt Q8NHP6)	0.421	0.153
SPATA20 (UniProt Q8TB22)	1.15	1.15
FAM172A (UniProt Q8WUF8)	0.837	0.623
NPLOC4 (UniProt Q8TAT6)	-0.311	0.488
NFATC2IP (UniProt Q8NCF5)	-2.09	-0.809
ZNF579 (UniProt Q8NAF0)	-0.557	-0.0939
UniProt Q8NFD5	-0.301	-0.34
ENGASE (UniProt Q8NFI3)	-0.858	-0.657
NUP210 (UniProt Q8TEM1)	-0.154	-0.208
RNF169 (UniProt Q8NCN4)	-1.16	-1.01

A second format for some results above:

| Target | melting temperature shift (MBE1 concentration: 100 nM) [°C] | melting temperature shift (MBE1 concentration: 1 uM) [°C] |
| --- | --- | --- |
| CHTF18 (UniProt Q8WVB6) | -0.762 | -0.301 |
| BLOC1S5 (UniProt Q8TDH9) | 0.0427 | 0.302 |
| UniProt Q8NC69 | -0.847 | 5.61 |

Continuation:

Target	melting temperature shift (MBE1 concentration: 100 nM) [°C]	melting temperature shift (MBE1 concentration: 1 uM) [°C]
UniProt Q8N960	-0.207	-3.4
SCFD2 (UniProt Q8WU76)	-1.62	-1.26
DTX3L (UniProt Q8TDB6)	-1.54	0.0961
ASCC1 (UniProt Q8N9N2)	-0.541	0.141
NEK9 (UniProt Q8TD19)	0.434	0.0122
UniProt Q8NBM8	-1.13	-0.183
NSUN6 (UniProt Q8TEA1)	-0.55	-0.183
DDX54 (UniProt Q8TDD1)	-0.237	-0.0769
USP32 (UniProt Q8NFA0)	-0.536	0.212
UniProt Q8WVS4	1.37	0.623
UniProt Q8NHU6	-0.457	-0.701
UniProt Q8WUW1	-2.7	-2.35
UniProt Q8TEL6	-2.33	-1.8
DLG5 (UniProt Q8TDM6)	-2.47	-0.279
ZCRB1 (UniProt Q8TBF4)	-2.15	-0.0671
UniProt Q8NC54	-4.35	-3.93
PIP4K2C (UniProt Q8TBX8)	-0.198	-0.47
DYNC2H1 (UniProt Q8NCM8)	3.58	0.885
ARL14EP (UniProt Q8N8R7)	-2.1	-0.207
GDPD1 (UniProt Q8N9F7)	1.04	0.983
GPATCH11 (UniProt Q8N954)	0.055	-0.11
UniProt Q8NB25	0.181	-0.181
PPP1R13L (UniProt Q8WUF5)	-1.35	-1.56

Target	melting temperature shift (MBE1 concentration: 100 nM) [°C]	melting temperature shift (MBE1 concentration: 1 uM) [°C]
VANGL1 (UniProt Q8TAA9)	-1.74	-0.354
FBXO30 (UniProt Q8TB52)	1.39	1.83
APPL2 (UniProt Q8NEU8)	-1.17	-1.01
UniProt Q8NDT2	-0.57	-0.937
THOC2 (UniProt Q8NI27)	-0.734	-0.335
PREX1 (UniProt Q8TCU6)	-1.2	-0.569
UniProt Q8NI60	-0.181	-0.0183
URGCP (UniProt Q8TCY9)	-0.55	-1.05
UniProt Q8TBP6	-2.49	0.238
UniProt Q8WUD1	-6.25	-3.2
UniProt Q8TE99	-1.66	0.195
GDAP1 (UniProt Q8TB36)	-1.36	-0.0939
LRRC57 (UniProt Q8N9N7)	-0.617	-0.0201
UniProt Q8NBW4	-0.705	0
AVL9 (UniProt Q8NBF6)	-0.664	0.751
MLKL (UniProt Q8NB16)	0.605	-0.0366
TFB1M (UniProt Q8WVM0)	0.867	-0.208
NCOA7 (UniProt Q8NI08)	1.01	-0.543
UniProt Q8ND82	0.983	0.946
GOLGA5 (UniProt Q8TBA6)	-1.08	-0.238
SUMF1 (UniProt Q8NBK3)	-0.416	0.165
